No constants are given. Whether binding was seen depends on the method and setting. For some assays here: Binding seen in cells or lysates may run through a third protein. Some results given as binding are weak or reduced against the parent protein; the word gives no strength. For some assays here: Sequences can lack the tags named with a protein.
What was measured:
[1] = target: T1, POLD3-RFP (POLD3 fused with RFP) (UniProt Q15054); assay: proximity ligation; DuoLink In Situ Red kit on cells fixed in 2% PFA; mouse anti-FLAG and rabbit anti-RFP antibodies; PARP1/2KO cells complemented with PARP2-FLAG or E558A and transfected with POLD3-RFP; with or without BLM siRNA (50 nM, 48 h)
T1 sequence: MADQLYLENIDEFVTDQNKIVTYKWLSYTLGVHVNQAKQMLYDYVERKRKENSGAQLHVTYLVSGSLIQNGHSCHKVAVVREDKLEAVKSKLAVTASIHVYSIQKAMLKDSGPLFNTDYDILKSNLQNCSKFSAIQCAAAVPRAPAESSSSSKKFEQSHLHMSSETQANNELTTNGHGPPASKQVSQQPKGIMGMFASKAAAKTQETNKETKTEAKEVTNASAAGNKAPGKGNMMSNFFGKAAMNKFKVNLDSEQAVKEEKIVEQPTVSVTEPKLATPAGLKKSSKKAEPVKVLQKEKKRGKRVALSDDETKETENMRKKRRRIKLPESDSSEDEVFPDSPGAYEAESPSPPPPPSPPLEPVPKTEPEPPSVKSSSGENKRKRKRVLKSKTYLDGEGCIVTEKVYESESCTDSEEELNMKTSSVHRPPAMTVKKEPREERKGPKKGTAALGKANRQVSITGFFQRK

By UniProt entry, the sequences of proteins in these tests, tags left out. Where a name states a change or a piece, a line headed by the entry shows the natural chain unless it says otherwise.
UniProt Q9UGN5: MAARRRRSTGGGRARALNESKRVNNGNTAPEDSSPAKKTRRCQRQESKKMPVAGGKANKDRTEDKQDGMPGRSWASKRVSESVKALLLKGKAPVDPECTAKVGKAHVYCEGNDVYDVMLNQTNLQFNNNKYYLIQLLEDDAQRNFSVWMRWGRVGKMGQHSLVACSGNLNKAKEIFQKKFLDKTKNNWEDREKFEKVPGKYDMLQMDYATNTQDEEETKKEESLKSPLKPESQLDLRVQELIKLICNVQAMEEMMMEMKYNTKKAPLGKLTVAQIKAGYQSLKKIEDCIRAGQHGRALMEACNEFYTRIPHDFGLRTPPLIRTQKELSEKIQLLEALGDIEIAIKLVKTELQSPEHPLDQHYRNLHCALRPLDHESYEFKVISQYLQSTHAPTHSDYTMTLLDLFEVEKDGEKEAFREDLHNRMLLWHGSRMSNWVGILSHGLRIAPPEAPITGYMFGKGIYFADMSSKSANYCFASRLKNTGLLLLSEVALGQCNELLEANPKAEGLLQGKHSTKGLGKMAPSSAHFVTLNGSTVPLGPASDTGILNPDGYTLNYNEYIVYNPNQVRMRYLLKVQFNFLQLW
UniProt P49005: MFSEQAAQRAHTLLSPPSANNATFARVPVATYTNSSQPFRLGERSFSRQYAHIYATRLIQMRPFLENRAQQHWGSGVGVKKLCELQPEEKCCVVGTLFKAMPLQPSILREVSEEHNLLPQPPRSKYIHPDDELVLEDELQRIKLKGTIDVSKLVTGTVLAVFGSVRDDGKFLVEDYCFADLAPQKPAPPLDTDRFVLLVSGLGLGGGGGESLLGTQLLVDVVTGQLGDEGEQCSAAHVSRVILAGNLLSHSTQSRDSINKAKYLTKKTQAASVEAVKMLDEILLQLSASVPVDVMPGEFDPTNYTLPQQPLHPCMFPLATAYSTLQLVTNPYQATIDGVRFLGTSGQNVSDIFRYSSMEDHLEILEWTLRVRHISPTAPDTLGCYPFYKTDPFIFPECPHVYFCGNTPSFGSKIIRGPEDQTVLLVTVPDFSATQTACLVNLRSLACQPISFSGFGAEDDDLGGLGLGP
UniProt P28340: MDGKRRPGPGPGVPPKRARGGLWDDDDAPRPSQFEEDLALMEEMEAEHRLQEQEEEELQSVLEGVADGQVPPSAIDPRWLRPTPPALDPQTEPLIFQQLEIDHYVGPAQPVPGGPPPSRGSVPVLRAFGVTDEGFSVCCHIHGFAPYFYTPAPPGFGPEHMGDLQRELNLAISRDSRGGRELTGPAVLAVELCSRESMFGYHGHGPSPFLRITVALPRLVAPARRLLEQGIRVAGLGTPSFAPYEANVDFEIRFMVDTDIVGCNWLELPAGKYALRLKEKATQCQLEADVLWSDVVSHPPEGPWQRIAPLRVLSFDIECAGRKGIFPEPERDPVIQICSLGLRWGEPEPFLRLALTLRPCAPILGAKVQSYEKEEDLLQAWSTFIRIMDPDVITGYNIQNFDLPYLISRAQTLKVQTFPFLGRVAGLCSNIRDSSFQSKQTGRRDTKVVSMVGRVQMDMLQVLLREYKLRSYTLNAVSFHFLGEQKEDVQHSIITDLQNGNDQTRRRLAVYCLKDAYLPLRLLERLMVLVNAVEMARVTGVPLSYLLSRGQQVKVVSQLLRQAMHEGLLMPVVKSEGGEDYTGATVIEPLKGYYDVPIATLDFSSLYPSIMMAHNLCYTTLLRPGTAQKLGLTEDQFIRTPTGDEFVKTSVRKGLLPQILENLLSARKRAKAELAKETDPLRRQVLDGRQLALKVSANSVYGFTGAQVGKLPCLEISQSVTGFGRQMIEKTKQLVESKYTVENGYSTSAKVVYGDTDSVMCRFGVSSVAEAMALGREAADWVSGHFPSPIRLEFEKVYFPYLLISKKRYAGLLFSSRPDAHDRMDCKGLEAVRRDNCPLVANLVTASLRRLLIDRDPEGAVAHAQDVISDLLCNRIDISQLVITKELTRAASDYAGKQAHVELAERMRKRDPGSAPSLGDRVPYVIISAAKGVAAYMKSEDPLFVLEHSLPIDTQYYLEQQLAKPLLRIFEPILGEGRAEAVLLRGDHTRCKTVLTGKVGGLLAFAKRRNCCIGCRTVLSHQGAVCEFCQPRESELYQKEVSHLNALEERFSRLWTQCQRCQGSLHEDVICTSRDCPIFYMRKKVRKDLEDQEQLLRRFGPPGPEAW

[2] = target: T1, POLD3-RFP (POLD3 fused with RFP); assay: co-IP; POLD3-RFP captured on RFP-Trap-M magnetic beads, 1 h at 4 °C, from RIPA lysate with DNaseI, diluted in 10 mM Tris-HCl pH 7.5, 150 mM NaCl, 0.5 mM EDTA; blot with anti-PARP2
[3] = target: T2, p66 (POLD3) subunit of recombinant human DNA polymerase delta (human) (UniProt Q15054); assay: SEC; Pol delta subunits co-expressed in E. coli, co-purified on a Ni-charged HiTrap chelating column (held by p66) and HiTrap heparin, then Superose 6 HR 10/30 in buffer A with 500 mM NaCl
T2 sequence: T1 sequence

binding [1] | binding [2] | binding [3] | Substance
binds | – | – | PARP2 E558A catalytically dead mutant (FLAG-tagged) (from UniProt Q9UGN5 1-583) (enzyme)
binds | binds | – | PARP2-FLAG (wild-type PARP2 fused to a 3x Flag tag) (from UniProt Q9UGN5 1-583) (enzyme)
– | – | binds | p50 (POLD2) subunit of recombinant human DNA polymerase delta (from UniProt P49005 1-469)
– | – | binds | p125 (POLD1) subunit of recombinant human DNA polymerase delta (from UniProt P28340 1-1107) (enzyme)

— PMC10987537
